Values of other authors in patent US20170262578A1, “SYSTEM, METHOD AND SOFTWARE FOR ANALYSIS OF INTRACELLULAR SIGNALING PATHWAY ACTIVATION USING TRANSCRIPTOMIC DATA” (PATHWAY PHARMACEUTICALS LTD, priority 2015, published 2017).
Read-outs that look alike come from different tables or passages of the source. For at least one compound, name, drawing or mass did not settle the structure.

Experiments:
[1] = test system: Metastatic Renal Cell Cancer; settings: 361 Axitinib / 362 Sorafenib participants
[2] = test system: Locally Recurrent or Metastatic Clear-Cell Renal Cell Carcinoma
[3] = test system: Locally Advanced and/or Metastatic Renal Cell Carcinoma; settings: for Median progression free survival: 800 mg Pazopanib daily (188) / 50 mg Sunitinib daily (179 participants); for complete response / partial response: among 188 Pazopanib / 179 Sunitinib participants
[4] = test system: Locally Advanced and/or Metastatic Renal Cell Carcinoma
[5] = test system: Locally Advanced and/or Metastatic Renal Cell Carcinoma; remark: listed apart in the source
[6] = test system: Metastatic Renal Cell Carcinoma; settings: from 103 participants
[7] = test system: Advanced (First-Line) Renal Cell Cancer
[8] = test system: Bevacizumab-Refractory Metastatic Renal Cell Carcinoma
[9] = test system: Cytokine-Refractory Metastatic Renal Cell Carcinoma
[10] = test system: Cytokine-Refractory Metastatic Renal Cell Carcinoma; remark: listed apart in the source
[11] = test system: Metastatic Renal Cell Cancer; settings: from 146 participants
[12] = test system: Renal Cell Carcinoma
[13] = 67 Pazopanib / 37 Sunitinib participants
[14] = 171 Pazopanib / 137 Sunitinib participants
[15] = among 557 Pazopanib / 553 Sunitinib participants
[16] = first-line group, 25 participants
[17] = first-line group, among 25 participants
[18] = pre-treated group, 26 participants

## CNC(=O)c1ccccc1Sc1ccc2c(/C=C/c3ccccn3)n[nH]c2c1 [Axitinib]
[1]
  Median progression free survival: 6.7 months

## Cc1ccc(Nc2nccc(N(C)c3ccc4c(C)n(C)nc4c3)n2)cc1S(N)(=O)=O [Pazopanib]
[2]; 78 from 225 participants
  Complete or partial response: 34.7%
[2]; 78 participants (complete+partial response)
  Median overall response duration: 68 weeks
[2]; among the first 60 participants at 12 week
  partial response: 19 participants
[2]; first 60 participants at 12 week (28 participants)
  stable disease: 47%
[2]; from 225 participants
  stable disease: 101 participants
[3]; [13]
  Median duration of overall response: 15.2 months
  Median time to overall response: 11.9 weeks
[3]; Asian subjects
  Median progression free survival: 8.4 months
[3]
  complete response: 1 participants
  partial response: 66 participants
[4]; 800 mg Pazopanib daily (557) / 50 mg Sunitinib daily (553 participants)
  Median progression free survival: 8.4 months
[4]; [14]
  Median duration of overall response: 13.8 months
  Median time to response: 11.9 weeks
[4]; 557 Pazopanib / 553 Sunitinib participants
  Median overall survival: 28.4 months
[4]; [15]
  complete response: 1 participants
  partial response: 170 participants
  stable disease: 216 participants
[5]; 88 participants
  Median time to response: 11.9 weeks
[5]; 290 participants
  Median overall response duration: 58.7 weeks
  Median overall survival: 22.9 months
  Median progression free survival: 9.2 months
[5]; among 290 participants
  complete response: 1 participants
  partial responses: 87 participants
  stable disease: 110 participants

## CCN(CC)CCNC(=O)c1c(C)[nH]c(/C=C2\C(=O)Nc3ccc(F)cc32)c1C [Sunitinib]
[6]
  Objective response (complete or partial): 31.1%
[7]; 41 from 116 participants
  Complete or partial response: 35.3%
[7]; 118 participants
  Median progression free survival: 9 months
  Median time to progression: 10 months
  One year survival rate: 67.8%
[3]; [13]
  Median time to overall response: 17.9 weeks
[3]; Asian subjects
  Median progression free survival: 11.1 months
[3]; Asian subjects, 179 participants
  Median overall survival: 31.5 months
[3]
  complete response: 0 participants
  partial response: 37 participants
[8]; 14 from 61 participants
  Complete or partial response: 23%
[8]; 61 participants
  Median overall survival: 47.1 weeks
  Median progression free survival: 30.4 weeks
  Median time to progression: 30.4 weeks
[9]; AM dose group
  1-year survival rate: 77.4%
[9]; AM dose group, 54 participants
  Median overall survival: 91.4 weeks
  Median progression free survival: 35.7 weeks
[9]; AM dose group, 15 among 54 participants
  Complete or partial response: 28.3%
[9]; PM dose group
  1-year survival rate: 66%
[9]; PM dose group, 53 participants
  Median overall survival: 76.4 weeks
  Median progression free survival: 35.3 weeks
[9]; PM dose group, 6 among 53 participants
  Complete or partial response: 11.5%
[10]; 35 from 106 participants
  Complete or partial response: 33%
[10]; 106 participants
  Median overall survival: 104.1 weeks
  Median progression free survival: 38 weeks
  Median time to progression: 46.3 weeks
  One year survival probability: 67.2%
  two year survival probability: 50.2%
[11]; Sunitinib 37.5 mg group (daily)
  Complete or partial response: 28.1%
[11]; Sunitinib 50 mg group (Schedule 4/2)
  Complete or partial response: 32.2%
[12]; [16]
  Median overall survival: 143.4 weeks
  Median progression free survival: 53 weeks
[12]; [17]
  complete response: 1 participants
  partial response: 11 participants
[12]; [18]
  Median overall survival: 141 weeks
  Median progression free survival: 46 weeks
[12]; pre-treated group, among 26 participants
  partial response: 12 participants
